Measured values published in PubChem BioAssay AID2685 (National Center for Advancing Translational Sciences (NCATS), 2010).
The other results are listed elsewhere or left out. Shown are side measurements of this screen, not its main read-out; they come without a call. Most of these compounds were active or inconclusive in the main read-out, so they are no random draw. The note in brackets gives the kind of curve behind each potency; many fits are weak.

Test: qHTS Assay for Lipid Storage Modulators in Drosophila S3 Cells;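 for cell number change: cells counted by Cell Tracker Red CMTPX staining in the red channel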
Conditions: BODIPY lipid droplet fluorescence, 18-24 h; for cell number change: measured here: cell count max response, cells fed with added oleic acid
Summary of the method: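 Drosophila S3 cells got compounds at several concentrations plus oleic acid (400 uM solution). Laser-scanning cytometry with 488 nm excitation read lipid droplets at 500-530 nm and cells at 575-640 nm. Percent activity was relative to 20 uM Triacsin C.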

[1] = measured here: lipid fluorescence (Fed channel) AC50, cells fed with added oleic acid
[2] = measured here: cell number channel AC50, cells fed with added oleic acid

Row | Structure (SMILES) | cell number change [%] | AC50 [1] | AC50 [2]
1 | O=C(CSc1ccsc1[N+](=O)[O-])Nc1cccc(F)c1 | 17.2 |  | 
2 | Cc1ccc(C)c(OCCC(=O)OCC(=O)NC2CCCC2)c1 | -0.22 | 1.3 µM [rising, full curve, poor fit] | 
3 | Clc1ccccc1-c1nn2c(-c3ccncc3)nnc2s1 |  | 0.291 µM [rising, partial curve, poor fit] | 
4 | COc1ccc2oc(C(=O)N3CCN(C/C=C/c4ccccc4)CC3)c(C)c2c1 | -18.8 |  | 
5 | COc1ccc(CCNCCN2CCOCC2)cc1 | 13.5 | 3.66 µM [rising, single point] | 
6 | C=C(C)Cn1c(=O)c2c(nc3n2CCCN3Cc2ccccc2)n(C)c1=O | 22.7 | 0.58 µM [rising, full curve, poor fit] | 
7 | CCn1nnc(NC(=O)CSc2ccc(Cl)cc2)n1 | -2.32 | 0.116 µM [rising, full curve, poor fit] | 
8 | Cc1ccc(N(C(=O)CNC(=O)c2ccco2)C(C(=O)NC2CCCCC2)c2cccnc2)c(C)c1 (centres undefined) | -5.22 | 0.58 µM [falling, single point] | 
9 | OCCN1CCN(CCCc2c3c(cc4c2CCC4)CCC3)CC1 | -26 | 29.1 µM [falling, single point] | 
10 | CN(Cc1cccc(C(F)(F)F)c1)C(=O)C1CCC(=O)N(CC2CCCCC2)C1 (centres undefined) | -14.3 | 29.1 µM [falling, single point] | 
11 | COc1ccccc1NC(=O)c1cnc(SCC(=O)NCCc2ccccc2)n(C)c1=O | -15.8 |  | 
12 | OC(COc1ccc(Br)cc1)CN1CCN(c2ccccc2)CC1 (centres undefined) | 14.4 | 0.058 µM [rising, full curve] | 
13 | CC(C)C(=O)Nc1ccc2c(c1)C(=O)N(CCC(=O)O)C2=O | 10.5 | 0.0103 µM [falling, full curve] | 
14 | O=C(NC(=S)Nc1cc(-c2nc3ccccc3[nH]2)ccc1Cl)c1ccc2c(c1)OCO2 | 14.8 | 1.84 µM [rising, partial curve] | 
15 | O=C(/C=C/c1cccs1)NCc1ccc2c(c1)OCO2 | 22.3 | 29.1 µM [falling, single point] | 
16 | COc1ccccc1CN=Cc1[nH]c2ccc(Br)c(Cl)c2c1O |  | 11.6 µM [rising, partial curve] | 3.66 µM [rising, partial curve, poor fit]
17 | Cc1ccn2c(Nc3ccccc3C)c(-c3ccccn3)nc2c1 | -54.4 | 20.6 µM [falling, single point] | 29.1 µM [falling, single point]
18 | Cc1ccccc1NC(=S)/C(=C(\[O-])c1ccc(C)c([N+](=O)[O-])c1)[n+]1ccccc1 |  | 6.51 µM [falling, single point] | 
19 | O=C(NC12CC3CC(CC(C3)C1)C2)N1CCN(C(=O)C2CCCO2)CC1 (centres undefined) | -113 | 20.6 µM [falling, partial curve] | 16.4 µM [falling, partial curve]
20 | CCOP(=O)(O)c1ccccc1OCCCCCOc1ccccc1P(=O)(O)OCC | 22.5 | 32.6 µM [rising, partial curve, poor fit] | 

A stretch taken from the entries so far, as a working copy:
Row | Structure (SMILES) | cell number change [%] | AC50 [1] | AC50 [2]
3 | Clc1ccccc1-c1nn2c(-c3ccncc3)nnc2s1 |  | 0.291 µM [rising, partial curve, poor fit] | 
4 | COc1ccc2oc(C(=O)N3CCN(C/C=C/c4ccccc4)CC3)c(C)c2c1 | -18.8 |  | 

(listing goes on)

Row | Structure (SMILES) | cell number change [%] | AC50 [1] | AC50 [2]
21 | Cn1nc(-c2ccc(N3CCOCC3)c(NS(=O)(=O)c3ccccc3)c2)c2ccccc2c1=O | 236 | 2.06 µM [rising, partial curve] | 1.16 µM [rising, full curve]
22 | COc1ccc(C(CC(=O)Nc2ccccc2OC)n2cccc2)cc1 (centres undefined) | 19.2 | 13 µM [rising, partial curve, poor fit] | 
23 | CCSc1nnc(NC(=O)c2csc(C)c2)s1 | 0.703 |  | 
24 | O=C(CSc1nnc(-c2ccccn2)n1Cc1ccccc1)Nc1ccc2c(c1)OCO2 | -0.359 | 1.46 µM [rising, full curve] | 
25 | O=C(CSc1nnc(-c2ccncc2)n1-c1ccc(Cl)cc1)NCc1cccs1 | -19.5 | 1.46 µM [falling, partial curve, poor fit] | 
26 | Cc1cc(C(C)(C)C)c(OC(=O)[C@@H]2OC(c3ccccc3)=C[C@H]2c2ccccc2)c(C(C)(C)C)c1 | -22.1 | 6.51 µM [falling, single point] | 
27 | CS(=O)(=O)N(CC(=O)NCc1ccccc1Cl)c1cccc([N+](=O)[O-])c1 | -24.6 | 0.00461 µM [falling, full curve, poor fit] | 0.00461 µM [falling, full curve, poor fit]
28 | Cc1ccc2nc(/C(C#N)=C\c3ccc(Oc4ccc([N+](=O)[O-])cn4)cc3)[nH]c2c1 | 22.5 |  | 6.51 µM [falling, partial curve, poor fit]
29 | C/C(=N\Nc1ccccc1Cl)c1ccc(-n2ccnc2)cc1 | -11.1 | 0.13 µM [rising, full curve, poor fit] | 
30 | COc1ccc(NC(=S)NN(C)C(=S)Nc2ccc(OC)cc2)cc1 | 1.68 | 6.51 µM [rising, single point] | 6.51 µM [rising, single point]
31 | COc1ccc(-n2c(C)cc(C(=O)CCl)c2C)cc1 |  | 32.6 µM [falling, partial curve, poor fit] | 
32 | CCCn1c2ccc(C)cc2c2n[nH]c(=S)nc21 | 24.7 | 11.6 µM [rising, partial curve, poor fit] | 
33 | O=C(c1cnn2c(C(F)(F)F)cc(-c3ccccc3)nc12)N1CCOCC1 | -26.8 | 0.13 µM [falling, full curve] | 0.517 µM [falling, full curve]
34 | COc1ccc(CNC(=O)C2CCCN(S(=O)(=O)c3ccccc3)C2)cc1 (centres undefined) | 8.01 | 29.1 µM [rising, single point] | 
35 | O=C(CSc1nc2ccccc2[nH]1)NCc1ccco1 | 0.337 |  | 
36 | CC(Sc1nncn1C)C(=O)Nc1nnc(C(C)C)s1 (centres undefined) |  |  | 6.51 µM [falling, single point]
37 | O=C(CN(C(=O)CCC(=O)Nc1ccccn1)c1cccc(F)c1)NCc1ccco1 | -6.67 | 29.1 µM [falling, single point] | 
38 | O=C(CSc1nnc(NC(=O)c2c(F)cccc2F)s1)NCc1ccccc1 |  | 29.1 µM [rising, single point] | 
39 | COC(=O)c1ccc(CSc2nnc(NCc3ccccc3)s2)o1 | -9.22 | 6.51 µM [rising, single point] | 
40 | COc1cc(-c2noc(C)c2C(=O)NCCc2c[nH]c3ccccc23)cc(OC)c1OC | -17.2 | 29.1 µM [falling, single point] | 

2 compounds picked at random from the list so far, as already listed:
Row | Structure (SMILES) | cell number change [%] | AC50 [1] | AC50 [2]
3 | Clc1ccccc1-c1nn2c(-c3ccncc3)nnc2s1 |  | 0.291 µM [rising, partial curve, poor fit] | 
38 | O=C(CSc1nnc(NC(=O)c2c(F)cccc2F)s1)NCc1ccccc1 |  | 29.1 µM [rising, single point] | 

Additional compounds follow:

Row | Structure (SMILES) | cell number change [%] | AC50 [1] | AC50 [2]
41 | O=C(Nc1nccs1)C(Br)C(Br)c1ccccc1 (centres undefined) | -8.5 | 32.6 µM [falling, partial curve, poor fit] | 
42 | O=[N+]([O-])c1ccccc1S(=O)(=O)c1ccccc1[N+](=O)[O-] | -35.2 | 20.6 µM [falling, single point] | 18.4 µM [falling, single point]
43 | CN1N=C(C(F)(F)F)CC1=O | 30.9 | 29.1 µM [rising, single point] | 29.1 µM [rising, single point]
44 | COc1ccccc1NC(=O)C1=C(C)Nc2nc3ccccc3n2C1c1cccs1 (centres undefined) | 30.7 | 6.51 µM [rising, partial curve] | 2.31 µM [rising, full curve, poor fit]
45 | COc1cccc(N=Nc2ccc3ccccc3c2O)c1 | -7.51 | 0.92 µM [falling, full curve] | 2.91 µM [falling, partial curve]
46 | O=C(NCC1CCCO1)c1ccc(F)c2ccccc12 (centres undefined) | 13.1 |  | 
47 | CC(C)C(NC(=O)c1ccccc1)C(=O)N1CCCCCC1 (centres undefined) |  | 29.1 µM [falling, single point] | 
48 | Cc1ccc2oc(/N=C(\N)NC(=O)C3CC3)nc2c1 | -18.4 | 0.58 µM [falling, partial curve, poor fit] | 
49 | COc1ccccc1/C=C1\SC(=S)N(CCC(=O)N2CCCCC2CCO)C1=O (centres undefined) | -8.56 | 6.51 µM [falling, partial curve] | 
50 | CC(=O)c1ccc(OCc2ccc(Oc3c(Cl)cccc3[N+](=O)[O-])cc2)cc1 | 12.4 | 1.46 µM [rising, partial curve] | 
51 | Cn1c(=O)c2c(nc(CN3CCN(CCO)CC3)n2Cc2cccc3ccccc23)n(C)c1=O | -2.51 | 29.1 µM [rising, single point] | 
52 | CCc1ccc(CCC(=O)Nc2sc3c(c2C#N)CCCC3)o1 |  | 5.8 µM [rising, full curve] | 
53 | O=C(O)CC(NNC(=O)c1ccccc1)C(=O)Nc1cccc([N+](=O)[O-])c1 (centres undefined) | -7.74 |  | 
54 | COc1ccc2c(C(=O)CN3CC(C)OC(C)C3)c[nH]c2c1 (centres undefined) | 12.2 | 0.103 µM [falling, full curve, poor fit] | 
55 | C=CCn1c(C)c(/C=C/c2cc[n+](C)cc2)c2ccccc21 | -97.7 |  | 29.1 µM [falling, single point]
56 | CC(=O)Nc1ccc(NC(=O)C(C)OC(=O)C2CCC2)cc1 (centres undefined) | -0.748 |  | 
57 | NCCc1nnc(SCc2ccc(F)cc2)o1 | 49.8 |  | 9.2 µM [rising, partial curve]
58 | COc1ccc(OCC(O)CN2CCN(Cc3ccc4c(c3)OCO4)CC2)cc1 (centres undefined) |  | 0.651 µM [rising, full curve, poor fit] | 
59 | COc1ccc(OC)c(NC(=O)C(Sc2ccccc2)c2ccccc2)c1 (centres undefined) | -22.7 | 13 µM [falling, single point] | 
60 | C1=CC(c2cc3ccccc3o2)OC(CCc2ccccc2)C1 (centres undefined) | 23.6 | 6.51 µM [rising, single point] | 
